Earlier results as cited in US8071348B2, “Protein tyrosine phosphatase substrate-trapping double mutant and uses thereof” (Albert Einstein College of Medicine of Yeshiva University, priority 2002, dated 2011).

Tested on: Ac-Asp-Ala-Asp-Glu-F2Pmp-Leu-NH2
Settings: ITC, 25° C. and pH 7.0; data from (24); cited from earlier work

Row | Molecule | TΔS [kcal/mol] | ΔG [kcal/mol] | ΔH [kcal/mol]
1 | C215S: existing PTP1B substrate-trapping mutant, active site Cys215 replaced by Ser (protein, UniProt P18031 1-435, looked up, variant C215S) Tyrosine-protein phosphatase …: MEMEKEFEQIDKSGSWAAIYQDIRHEASDFPCRVAKLPKNKNRNRYRDVSPFDHSRIKLHQEDNDYINASLIKMEEAQRSYILTQGPLPNTCGHFWEMVWEQKSRGVVMLNRVMEKGSLKCAQYWPQKEEKEMIFEDTNLKLTLISEDIKSYYTVRQLELENLTTQETREILHFHYTTWPDFGVPESPASFLNFLFKVRESGSLSPEHGPVVVHSSAGIGRSGTFCLADTCLLLMDKRKDPSSVDIKKVLLEMRKFRMGLIQTADQLRFSYLAVIEGAKFIMGDSSVQDQWKELSHEDLEPPPEHIPPPPRPPKRILEPHNGKCREFFPNHQWVKEETQEDKDCPIKEEKGSPLNAAPYGIESMSQDTEVRSRVVGGSLRGAQAASPAKGEPSLPEKDEDHALSYWKPFLVNMCVATVLTAGAYLCYRFLFNSNT | -1.2 ± 0.2 | -9.2 ± 0.1 | -10.4 ± 0.2
2 | PTP1B/D181A, catalytic domain (residues 1 to 321) (protein) MEMEKEFEQIDKSGSWAAIYQDIRHEASDFPCRVAKLPKNKNRNRYRDVSPFDHSRIKLHQEDNDYINASLIKMEEAQRSYILTQGPLPNTCGHFWEMVWEQKSRGVVMLNRVMEKGSLKCAQYWPQKEEKEMIFEDTNLKLTLISEDIKSYYTVRQLELENLTTQETREILHFHYTTWPAFGVPESPASFLNFLFKVRESGSLSPEHGPVVVHCSAGIGRSGTFCLADTCLLLMDKRKDPSSVDIKKVLLEMRKFRMGLIQTADQLRFSYLAVIEGAKFIMGDSSVQDQWKELSHEDLEPPPEHIPPPPRPPKRILEPHN | 3.7 ± 0.1 | -10.2 ± 0.1 | -6.5 ± 0.1
3 | wild-type PTP1B, catalytic domain (residues 1 to 321) (protein) MEMEKEFEQIDKSGSWAAIYQDIRHEASDFPCRVAKLPKNKNRNRYRDVSPFDHSRIKLHQEDNDYINASLIKMEEAQRSYILTQGPLPNTCGHFWEMVWEQKSRGVVMLNRVMEKGSLKCAQYWPQKEEKEMIFEDTNLKLTLISEDIKSYYTVRQLELENLTTQETREILHFHYTTWPDFGVPESPASFLNFLFKVRESGSLSPEHGPVVVHCSAGIGRSGTFCLADTCLLLMDKRKDPSSVDIKKVLLEMRKFRMGLIQTADQLRFSYLAVIEGAKFIMGDSSVQDQWKELSHEDLEPPPEHIPPPPRPPKRILEPHN | 5.1 ± 0.2 | -9.0 ± 0.1 | -3.9 ± 0.2
